Reference: patent US20230202980A1, “N-(2-Aminophenyl)-Prop-2-Enamide Derivatives, and Uses Thereof in the Treatment of Cancer” (National University of Singapore, priority 2019, published 2023)
Some entries share one result that the patent states for a list of compounds. At least one structure is not confirmed: it was looked up by name or label, or the drawing left a doubt.

Tested on: SNU-398 (SALL4 high) cells
Test: SALL4 high/low phenotypic screen (cell viability, CellTiter-Glo), SALL4 high cells
Assay type: cell-based
Method: SNU-387 empty vector, Tg:SALL4A, and Tg:SALL4B expressing isogenic cell lines were generated by transducing WT SNU-387 cells with empty vector, SALL4A or SALL4B FUW-Luc-mCh-puro lentiviral constructs^1. Cells were plated in 50 µl of RPMI culture media in 384-well white flat-bottom plates (Coming) and incubated at 37° C. in a humidified atmosphere of 5% CO2 overnight. Cell numbers per well were 1500 for SNU-398, and 750 for SNU-387 and SNU-387 isogenic lines. After overnight incubation, varying concentrations of compounds 1-80 were added to cells with multichannel electronic pipettes (Rainin). Cells were then incubated for 72 hrs at 37° C. in a humidified atmosphere of 5% CO2 before 10 µl of CellTiter-Glo reagent was added to the wells with the MultiFlo Microplate Dispenser (BioTek). Cells were incubated at room temperature for a mininuun of 10 minutes after which luminescence readings were recorded by an Infinite M1000 Microplate Reader (Tecan).
This testing was based on SALL4 high/low phenotypic screen as described herein. IC50 values noted for the compounds/groups above are based on ICso in high SALL4 SNU398 cells.
ALPHA assay measures binding between SALL4 and RBBp4, an inhibitor could block the binding and reflected in low reading of the ALPHA assay. FP assay also measures binding between SALL4 and RBBp4, an inhibitor results in higher reading. […]

## COc1cc(Nc2ncccc2/C=C/C(=O)Nc2ccc(Cl)cc2N)cc(OC)c1OC [Cmpd 6]
  selectivity in high SALL4 cells compared to low SALL4 cells: up to 100 fold
